Measured values from paper PMC5021942.

Amino acid sequences for entries named in this document (tags omitted). A change or cut given only in a name is not applied to a line headed by its entry.
UniProt Q9NPB6: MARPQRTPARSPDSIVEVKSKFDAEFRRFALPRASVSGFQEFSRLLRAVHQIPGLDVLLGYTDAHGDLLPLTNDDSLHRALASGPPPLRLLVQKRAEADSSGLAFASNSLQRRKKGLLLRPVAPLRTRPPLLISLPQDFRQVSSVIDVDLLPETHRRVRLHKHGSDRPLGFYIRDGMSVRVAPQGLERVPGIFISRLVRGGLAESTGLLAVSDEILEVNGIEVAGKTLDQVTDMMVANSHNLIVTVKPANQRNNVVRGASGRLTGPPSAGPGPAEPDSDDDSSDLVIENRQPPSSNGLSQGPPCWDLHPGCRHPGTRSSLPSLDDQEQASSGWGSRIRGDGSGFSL

Molecular target: T1, human Hook2 Cter (amino acids 438 to 719), LexA two-hybrid bait (human) (UniProt Q96ED9)
T1 sequence: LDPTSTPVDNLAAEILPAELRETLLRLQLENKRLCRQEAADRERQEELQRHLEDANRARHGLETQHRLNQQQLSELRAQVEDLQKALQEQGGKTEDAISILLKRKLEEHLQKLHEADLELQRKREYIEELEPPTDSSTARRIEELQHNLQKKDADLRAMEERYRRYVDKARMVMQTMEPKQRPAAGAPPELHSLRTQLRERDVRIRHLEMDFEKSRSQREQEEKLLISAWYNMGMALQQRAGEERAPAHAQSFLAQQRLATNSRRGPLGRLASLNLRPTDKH
Assay: two-hybrid; L40 yeast, LexA system; Hook2 Cter in pBTM116 as bait, PAR6α variants in pACT2; selection without tryptophan, leucine and histidine with 10 mM and 5 mM 3-aminotriazole; second selection on X-Gal medium

binding: binds
Substance: human PAR6α ΔPDZ, two-hybrid prey (from UniProt Q9NPB6)

These are yes or no findings as the source states them, for the method shown. Binding calls can cover weak binding; strength is not graded here.
